Data published in article PMC3524764.
No constants are given. Whether binding was seen depends on the method and setting. In cells and extracts the contact can be indirect. Some results given as binding are weak or reduced against the parent protein; the word gives no strength. One block for each substance: values may come before it.

Sequences of proteins named here, by UniProt entry; tags and fusion partners are left off. Residues count along the entry.
UniProt O88704: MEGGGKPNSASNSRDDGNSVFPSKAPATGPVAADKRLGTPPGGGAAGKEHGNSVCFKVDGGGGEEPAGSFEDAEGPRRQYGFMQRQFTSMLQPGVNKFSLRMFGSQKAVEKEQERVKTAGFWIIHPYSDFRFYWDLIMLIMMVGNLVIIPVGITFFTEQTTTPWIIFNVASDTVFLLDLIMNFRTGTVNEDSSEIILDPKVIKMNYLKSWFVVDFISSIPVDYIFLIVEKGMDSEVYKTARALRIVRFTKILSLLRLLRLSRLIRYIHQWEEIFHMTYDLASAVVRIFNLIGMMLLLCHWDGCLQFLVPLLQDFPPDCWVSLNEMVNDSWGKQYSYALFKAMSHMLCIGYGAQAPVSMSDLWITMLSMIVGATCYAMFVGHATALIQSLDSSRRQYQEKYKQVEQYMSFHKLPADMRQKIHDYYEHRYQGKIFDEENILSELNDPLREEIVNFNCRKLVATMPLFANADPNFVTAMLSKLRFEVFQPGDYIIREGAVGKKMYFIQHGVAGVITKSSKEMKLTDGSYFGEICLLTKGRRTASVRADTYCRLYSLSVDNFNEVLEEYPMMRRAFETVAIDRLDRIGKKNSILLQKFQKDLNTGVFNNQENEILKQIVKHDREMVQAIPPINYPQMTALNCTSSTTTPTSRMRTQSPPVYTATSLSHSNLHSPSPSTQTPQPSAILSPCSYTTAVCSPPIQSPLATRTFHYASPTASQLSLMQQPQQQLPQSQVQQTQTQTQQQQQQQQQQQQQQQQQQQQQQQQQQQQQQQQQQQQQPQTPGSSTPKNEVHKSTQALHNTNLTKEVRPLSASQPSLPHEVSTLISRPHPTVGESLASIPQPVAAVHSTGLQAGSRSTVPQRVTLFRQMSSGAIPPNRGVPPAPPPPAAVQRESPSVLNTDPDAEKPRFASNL
UniProt P12023, residues 18-770: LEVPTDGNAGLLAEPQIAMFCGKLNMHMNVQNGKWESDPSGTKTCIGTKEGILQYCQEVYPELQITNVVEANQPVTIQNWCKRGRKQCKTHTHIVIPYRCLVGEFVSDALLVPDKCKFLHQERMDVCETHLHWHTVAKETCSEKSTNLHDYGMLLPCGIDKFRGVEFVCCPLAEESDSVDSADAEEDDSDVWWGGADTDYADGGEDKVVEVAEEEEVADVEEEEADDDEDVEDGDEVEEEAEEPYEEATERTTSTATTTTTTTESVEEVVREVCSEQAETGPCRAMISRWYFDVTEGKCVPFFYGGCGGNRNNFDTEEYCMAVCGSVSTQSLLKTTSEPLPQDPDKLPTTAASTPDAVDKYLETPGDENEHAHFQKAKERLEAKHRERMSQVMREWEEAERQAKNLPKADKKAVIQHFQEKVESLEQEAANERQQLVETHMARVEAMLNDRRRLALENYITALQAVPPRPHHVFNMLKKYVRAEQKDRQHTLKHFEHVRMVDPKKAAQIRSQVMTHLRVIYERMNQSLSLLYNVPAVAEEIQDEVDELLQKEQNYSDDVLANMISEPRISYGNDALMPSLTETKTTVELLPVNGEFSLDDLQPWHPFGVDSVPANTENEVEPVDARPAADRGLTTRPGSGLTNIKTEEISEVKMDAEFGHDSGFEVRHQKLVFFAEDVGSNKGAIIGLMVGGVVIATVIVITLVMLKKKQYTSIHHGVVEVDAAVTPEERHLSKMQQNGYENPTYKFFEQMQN

Tests used:
[1] = target: FLAG-APP (FLAG-tagged human APP695) (human) (UniProt P05067); experiment: co-IP; N2a cells transiently transfected with an APP construct and pCI-murine HCN1, lysed in PBS with 1.0% Triton X-100; precipitated with anti-FLAG M2, anti-hAPP extracellular domain (LN27) or anti-HCN1 antibody, 4°C 2 h, Dynabeads Protein G; immunoblot; also with or without 10 μM ZD7288 (Figure S5, no influence on the interaction)
[2] = target: murine HCN1, transiently overexpressed in N2a cells (mouse) (UniProt O88704); experiment: as above
[3] = target: HCN1 (hyperpolarization-activated cyclic nucleotide gated channel 1), endogenous in mouse brain (mouse (endogenous in mouse brain)) (UniProt O88704); experiment: co-IP; lysate of the cortex of wild type mice (13 weeks old in Figure 3I-K) in HBS-T lysis buffer (10 mM HEPES pH 7.6, 150 mM NaCl, 5 mM EDTA, 0.5% Triton X-100); precipitated with anti-HCN1, anti-X11 or anti-X11L/Mint2 antibody, 4°C 2 h, Dynabeads Protein G; immunoblot; HCN1-/-, X11-/- or X11L-/- mice as controls
[4] = target: HCN1 (hyperpolarization-activated cyclic nucleotide gated channel 1), endogenous in mouse brain (mouse (endogenous in mouse brain)) (UniProt O88704); experiment: co-IP; lysate of the EC-rich cortex region (from five mice) of HCN1+/+ and HCN1-/- mice in HBS-T lysis buffer; precipitated with anti-HCN1 antibody, 4°C 2 h, Dynabeads Protein G; immunoblot

binding [1]: binds
Substance: murine HCN1, transiently overexpressed in N2a cells (from UniProt O88704 1-910)

binding [2]: binds
Substance: APPΔcyt (human APP695 lacking the cytoplasmic carboxyl terminal region) (from UniProt P05067-4 18-651) (domain or fragment)

binding [3]: binds
binding [4]: binds
Substance: amyloid-β precursor protein (APP), endogenous in mouse brain (from UniProt P12023 18-770)

binding [2]: binds
Substance: FLAG-APP (FLAG-tagged human APP695) (from UniProt P05067-4 18-695)
